Results deposited as PubChem BioAssay AID1259298 (Sanger Institute, 2017)

Screen: 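Kinases whose loss strengthens killing by BYL719, cetuximab or trametinib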 (primary screen)
Cell system: HT55 human colorectal cancer cell line
Reagents: siRNA pool against human genes
Challenge: anchor drug BYL719 1 µM, cetuximab 5 µg/ml or trametinib 10 nM, or DMSO vehicle alone
Measured: 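Mean viability over replicates versus non-targeting pool, a robust z-score without drug, and per-drug synergy scores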
Reading the numbers: robust z-score, knock-down alone: higher = more cells remaining; low means essential gene; viability vs control pool, no drug: higher = more viable cells
Call rule: 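a gene counts as essential if its knock-down-alone robust z-score falls under -3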
Calls: active = essential (knock-down alone); inactive = no change alone
Shown is a random part of 794 deposited reagents. In the full data, 20 (2.5%) were called active. 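Calls rest only on the knock-down-alone score; drug synergy scores played no part in them.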 Unmarked entries are inactive. Viability is capped at 1. Not all columns of the deposit are shown. Not given: the amount of reagent, the time to read-out.

Knock-down of DCLK1 (doublecortin like kinase 1) came out at: robust z-score, knock-down alone -0.203; viability vs control pool, no drug (fraction) = 0.939. Depletion of BCKDK (branched chain keto acid dehydrogenase kinase) resulted in: robust z-score, knock-down alone 0.58; viability vs control pool, no drug (fraction) = 1. Against PIP4K2B (phosphatidylinositol-5-phosphate 4-kinase type 2 beta) the deposit lists robust z-score, knock-down alone -0.0499; viability vs control pool, no drug (fraction) = 0.951. YES1 (YES proto-oncogene 1, Src family tyrosine kinase) showed robust z-score, knock-down alone 0.58; viability vs control pool, no drug (fraction) = 1. Knock-down of STK36 (serine/threonine kinase 36) resulted in: robust z-score, knock-down alone 0.58; viability vs control pool, no drug (fraction) = 1. PPP2R1A (protein phosphatase 2 scaffold subunit Aalpha) scored robust z-score, knock-down alone 0.58; viability vs control pool, no drug (fraction) = 1.

Knock-down of CDK12 (cyclin dependent kinase 12) resulted in: robust z-score, knock-down alone 0.161; viability vs control pool, no drug (fraction) = 0.967. For AAK1 (AP2 associated kinase 1) the deposit lists robust z-score, knock-down alone 0.403; viability vs control pool, no drug (fraction) = 0.986. With knock-down of MAST1 (microtubule associated serine/threonine kinase 1), the record shows robust z-score, knock-down alone 0.58; viability vs control pool, no drug (fraction) = 1. After knock-down of KHK (ketohexokinase), the screen gave robust z-score, knock-down alone 0.58; viability vs control pool, no drug (fraction) = 1. MERTK (MER proto-oncogene, tyrosine kinase) gave robust z-score, knock-down alone 0.437; viability vs control pool, no drug (fraction) = 0.989. Against TRIB2 (tribbles pseudokinase 2), the entry reads robust z-score, knock-down alone -0.718; viability vs control pool, no drug (fraction) = 0.899.

Knock-down of CHKA (choline kinase alpha) gave: robust z-score, knock-down alone -1.48; viability vs control pool, no drug (fraction) = 0.839. With knock-down of PHKA2 (phosphorylase kinase regulatory subunit alpha 2), the screen gave robust z-score, knock-down alone 0.58; viability vs control pool, no drug (fraction) = 1. Against CDC42BPG (CDC42 binding protein kinase gamma), the values are robust z-score, knock-down alone 0.58; viability vs control pool, no drug (fraction) = 1. RIPK2 (receptor interacting serine/threonine kinase 2) showed robust z-score, knock-down alone 0.58; viability vs control pool, no drug (fraction) = 1. Against IPMK (inositol polyphosphate multikinase) the deposit lists robust z-score, knock-down alone 0.58; viability vs control pool, no drug (fraction) = 1. Depletion of SRGAP3 (SLIT-ROBO Rho GTPase activating protein 3) resulted in: robust z-score, knock-down alone 0.58; viability vs control pool, no drug (fraction) = 1.

Against MAP3K5 (mitogen-activated protein kinase kinase kinase 5), the entry reads robust z-score, knock-down alone 0.164; viability vs control pool, no drug (fraction) = 0.967.

Records above whose gene name begins with M or m (3):
MAST1 (microtubule associated serine/threonine kinase 1) — robust z-score, knock-down alone = 0.58; viability vs control pool, no drug (fraction) = 1
MERTK (MER proto-oncogene, tyrosine kinase) — robust z-score, knock-down alone = 0.437; viability vs control pool, no drug (fraction) = 0.989
MAP3K5 (mitogen-activated protein kinase kinase kinase 5) — robust z-score, knock-down alone = 0.164; viability vs control pool, no drug (fraction) = 0.967
